## Drug screen on melanoma cell lines: cell count

From a melanoma drug combination screen (doi:10.1371/journal.pone.0140310); values rounded.

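Human melanoma cells were exposed to two drugs together for 72 h in 1,536-well plates and read by automated microscopy after fixing and staining. The read-out is cell count (nuclei) in % of the DMSO control; lower values mean stronger growth inhibition or killing. Every drug was used at one fixed concentration, the lower of two screened (a fifth of the higher). The file gives one value for each pair and line, without errors, so small differences may be noise.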 This is part of the screen, not chosen by result.

All values are for the listed drug together with sunitinib (0.4 µM): CCN(CC)CCNC(=O)c1c(C)[nH]c(/C=C2\C(=O)Nc3ccc(F)cc32)c1C

Compounds and concentrations:
SNS-314: O=C(Nc1cccc(Cl)c1)Nc1ncc(CCNc2ncnc3ccsc23)s1 at 0.0008 µM
BI-D1870: CC(C)CCN1c2nc(Nc3cc(F)c(O)c(F)c3)ncc2N(C)C(=O)C1C (stereo not shown) at 0.2 µM
temozolomide: Cn1nnc2c(C(N)=O)ncn2c1=O at 2 µM
OSU-03012: NCC(=O)Nc1ccc(-n2nc(C(F)(F)F)cc2-c2ccc3c(ccc4ccccc43)c2)cc1 at 1 µM
crizotinib: C[C@@H](Oc1cc(-c2cnn(C3CCNCC3)c2)cnc1N)c1c(Cl)ccc(F)c1Cl at 0.2 µM
nutlin-3: COc1ccc(C2=N[C@@H](c3ccc(Cl)cc3)[C@@H](c3ccc(Cl)cc3)N2C(=O)N2CCNC(=O)C2)c(OC(C)C)c1 at 0.1 µM
ENMD-2076: Cc1cc(Nc2cc(N3CCN(C)CC3)nc(/C=C/c3ccccc3)n2)n[nH]1 at 0.04 µM
TCS401: O=C(O)C(=O)Nc1sc2c(c1C(=O)O)CCNC2 at 1.67 µM
bexarotene: C=C(c1ccc(C(=O)O)cc1)c1cc2c(cc1C)C(C)(C)CCC2(C)C at 2 µM
VX-702: NC(=O)c1ccc(N(C(N)=O)c2c(F)cccc2F)nc1-c1ccc(F)cc1F at 0.4 µM
vismodegib: CS(=O)(=O)c1ccc(C(=O)Nc2ccc(Cl)c(-c3ccccn3)c2)c(Cl)c1 at 1 µM
tozasertib: Cc1cc(Nc2cc(N3CCN(C)CC3)nc(Sc3ccc(NC(=O)C4CC4)cc3)n2)n[nH]1 at 0.006 µM
PLX4720: CCCS(=O)(=O)Nc1ccc(F)c(C(=O)c2c[nH]c3ncc(Cl)cc23)c1F at 0.08 µM
dasatinib: Cc1nc(Nc2ncc(C(=O)Nc3c(C)cccc3Cl)s2)cc(N2CCN(CCO)CC2)n1 at 0.004 µM
fludarabine: Nc1nc(F)nc2c1ncn2[C@@H]1O[C@H](CO)[C@@H](O)[C@@H]1O at 0.2 µM
pazopanib: Cc1ccc(Nc2nccc(N(C)c3ccc4c(C)n(C)nc4c3)n2)cc1S(N)(=O)=O at 0.4 µM
lenalidomide: Nc1cccc2c1CN(C1CCC(=O)NC1=O)C2=O (stereo not shown) at 1 µM
dorsomorphin: c1cc(-c2cnn3cc(-c4ccc(OCCN5CCCCC5)cc4)cnc23)ccn1 at 0.4 µM
GSK650394: O=C(O)c1ccc(-c2c[nH]c3ncc(-c4ccccc4)cc23)cc1C1CCCC1 at 0.16 µM
GW2580: COc1ccc(COc2ccc(Cc3cnc(N)nc3N)cc2OC)cc1 at 1 µM
perifosine: CCCCCCCCCCCCCCCCCCOP(=O)([O-])OC1CC[N+](C)(C)CC1 at 0.4 µM
indole-3-carbinol: OCc1c[nH]c2ccccc12 at 0.8 µM
FK866: O=C(/C=C/c1cccnc1)NCCCCC1CCN(C(=O)c2ccccc2)CC1 at 0.01 µM
BMS-536924: Cc1cc(N2CCOCC2)cc2[nH]c(-c3c(NC[C@@H](O)c4cccc(Cl)c4)cc[nH]c3=O)nc12 at 0.2 µM
vincristine: CC[C@]1(O)C[C@H]2CN(CCc3c([nH]c4ccccc34)[C@@](C(=O)OC)(c3cc4c(cc3OC)N(C=O)[C@H]3[C@@](O)(C(=O)OC)[C@H](OC(C)=O)[C@]5(CC)C=CCN6CC[C@]43[C@@H]65)C2)C1 at 0.0001 µM
GW441756: Cn1cc(/C=C2\C(=O)Nc3cccnc32)c2ccccc21 at 0.4 µM
A-769662: N#Cc1c(O)c2c(-c3ccc(-c4ccccc4O)cc3)csc2[nH]c1=O at 2 µM
SU6656: CN(C)S(=O)(=O)c1ccc2c(c1)/C(=C/c1cc3c([nH]1)CCCC3)C(=O)N2 at 0.4 µM
nilutamide: CC1(C)NC(=O)N(c2ccc([N+](=O)[O-])c(C(F)(F)F)c2)C1=O at 1 µM
erlotinib: C#Cc1cccc(Nc2ncnc3cc(OCCOC)c(OCCOC)cc23)c1 at 0.8 µM
PD173074: CCN(CC)CCCCNc1ncc2cc(-c3cc(OC)cc(OC)c3)c(NC(=O)NC(C)(C)C)nc2n1 at 0.1 µM
CP-690550: C[C@@H]1CCN(C(=O)CC#N)C[C@@H]1N(C)c1ncnc2[nH]ccc12 at 1 µM

- temozolomide | G-361: 95.7; MEL-HO: 102; C32: 90.9; IPC-298: 96.2; COLO 792: 89.9
- BMS-536924 | G-361: 91.9; MEL-HO: 94.8; C32: 87.2; IPC-298: 101; COLO 792: 92.7
- CP-690550 | G-361: 107; MEL-HO: 114; C32: 93.7; IPC-298: 109; COLO 792: 91.4
- TCS401 | G-361: 105; MEL-HO: 82.9; C32: 92.3; IPC-298: 96.0; COLO 792: 86.1
- GW2580 | G-361: 92.0; MEL-HO: 107; C32: 93.4; IPC-298: 105; COLO 792: 85.3
- erlotinib | G-361: 97.0; MEL-HO: 103; C32: 98.5; IPC-298: 91.9; COLO 792: 62.6
- indole-3-carbinol | G-361: 114; MEL-HO: 105; C32: 62.4; IPC-298: 98.2; COLO 792: 89.3
- tozasertib | G-361: 103; MEL-HO: 104; C32: 85.6; IPC-298: 98.2; COLO 792: 102
- ENMD-2076 | G-361: 90.6; MEL-HO: 103; C32: 101; IPC-298: 103; COLO 792: 98.1
- nutlin-3 | G-361: 87.8; MEL-HO: 110; C32: 91.1; IPC-298: 102; COLO 792: 88.2
- lenalidomide | G-361: 90.7; MEL-HO: 91.5; C32: 85.3; IPC-298: 102; COLO 792: 79.4
- BI-D1870 | G-361: 79.3; MEL-HO: 82.4; C32: 81.8; IPC-298: 97.1; COLO 792: 84.2
- VX-702 | G-361: 99.5; MEL-HO: 102; C32: 96.2; IPC-298: 90.3; COLO 792: 99.1
- PLX4720 | G-361: 99.7; MEL-HO: 103; C32: 76.1; IPC-298: 97.3; COLO 792: 104
- PD173074 | G-361: 107; MEL-HO: 101; C32: 77.2; IPC-298: 100; COLO 792: 76.2
- fludarabine | G-361: 80.4; MEL-HO: 99.3; C32: 81.4; IPC-298: 93.7; COLO 792: 84.3
- A-769662 | G-361: 108; MEL-HO: 99.0; C32: 112; IPC-298: 97.6; COLO 792: 84.2
- pazopanib | G-361: 90.4; MEL-HO: 89.4; C32: 103; IPC-298: 79.9; COLO 792: 101
- vincristine | G-361: 109; MEL-HO: 119; C32: 89.8; IPC-298: 96.0; COLO 792: 106
- bexarotene | G-361: 94.9; MEL-HO: 107; C32: 94.5; IPC-298: 109; COLO 792: 127
- OSU-03012 | G-361: 95.1; MEL-HO: 95.4; C32: 83.4; IPC-298: 81.1; COLO 792: 94.0
- dorsomorphin | G-361: 95.5; MEL-HO: 97.2; C32: 88.5; IPC-298: 98.0; COLO 792: 91.0
- GW441756 | G-361: 100; MEL-HO: 101; C32: 92.9; IPC-298: 97.0; COLO 792: 95.3
- SU6656 | G-361: 107; MEL-HO: 83.7; C32: 79.5; IPC-298: 97.8; COLO 792: 90.3
- nilutamide | G-361: 119; MEL-HO: 102; C32: 93.9; IPC-298: 102; COLO 792: 92.7
- perifosine | G-361: 98.6; MEL-HO: 93.9; C32: 94.9; IPC-298: 97.4; COLO 792: 95.4
- dasatinib | G-361: 102; MEL-HO: 105; C32: 66.4; IPC-298: 95.8; COLO 792: 68.7
- SNS-314 | G-361: 97.4; MEL-HO: 98.8; C32: 89.9; IPC-298: 94.7; COLO 792: 81.2
- vismodegib | G-361: 93.8; MEL-HO: 110; C32: 84.6; IPC-298: 91.1; COLO 792: 108
- GSK650394 | G-361: 97.1; MEL-HO: 95.8; C32: 89.4; IPC-298: 94.2; COLO 792: 112
- crizotinib | G-361: 96.7; MEL-HO: 97.0; C32: 111; IPC-298: 101; COLO 792: 90.3
- FK866 | G-361: 8.8; MEL-HO: 37.3; C32: 107; IPC-298: 36.4; COLO 792: 52.2

3 of the entries, repeated:

Partner,G-361,MEL-HO,C32,IPC-298,COLO 792
temozolomide,95.7,102,90.9,96.2,89.9
PLX4720,99.7,103,76.1,97.3,104
BI-D1870,79.3,82.4,81.8,97.1,84.2